According to PubChem BioAssay AID330 (DTP/NCI, 2004):
The list does not hold the whole screen: it is rich in T/C values a quarter to a half above the control, in often repeated tests (any T/C) and in doses without a T/C. Further doses and runs are listed elsewhere. T/C gives the treated animals as a percentage of the vehicle group. Some doses have a count of surviving animals in place of a T/C: the source holds a T/C of zero for them, seemingly a mark for toxic or unscored doses. Some doses without a T/C left all or most animals alive at the check, yet need not have been tolerated: survival well below the control is almost never listed, so the zero probably covers shortened survival too. Survivors were counted at the toxicity check, usually on the fifth day, unless a day is given; later deaths do not show. Schedule codes are those of the source, read here as Q, the interval in days (D) or hours (H), X, the number of doses. Counts like (3×) give the number of equal values in this list. Some entries hold several experiments; the values are given in rising order. For survival time, the PubChem record calls one and a half times the control and up active, and a quarter to a half above the control has no call in these data; cut-offs in other NCI protocols can differ. Some T/C values carry the count of animals alive at the toxicity check (mostly the fifth day); without a count, all were alive then.

Test system: P388 leukemia ip, CD2F1 mice, survival T/C
Test: NCI In Vivo Anticancer Drug Screen. Data for tumor model P388 Leukemia (intraperitoneal) in CD2F1 (CDF1) mice
Details: T/C endpoint: median survival time, higher T/C = longer survival
[1] = dose: 200.0 micrograms/kg/injection, schedule: Q01DX005 (ip), vehicle: other

CC1OC(=O)C(C(C)C)NC(=O)C(C(C)C)OC(=O)C(C(C)C)NC(=O)C(C)OC(=O)C(C(C)C)NC(=O)C(C(C)C)OC(=O)C(C(C)C)NC(=O)C(C)OC(=O)C(C(C)C)NC(=O)C(C(C)C)OC(=O)C(C(C)C)NC1=O (stereo unspecified)
T/C (dose: 0.06 mg/kg/injection, schedule: Q01DX009 (ip), vehicle: other): 141 % of control | T/C (dose: 0.13 mg/kg/injection, schedule: Q01DX009 (ip), vehicle: other): 134 % of control | T/C (dose: 0.25 mg/kg/injection, schedule: Q01DX005 (ip), vehicle: Klucel (hydroxypropylcellulose) (HPC), evaluated on day 30): 132 % of control | T/C (dose: 0.25 mg/kg/injection, schedule: Q01DX005 (ip), vehicle: Klucel (hydroxypropylcellulose) (HPC), evaluated on day 60): 128 % of control | survivor count (dose: 0.25 mg/kg/injection, schedule: Q01DX009 (ip), vehicle: Klucel (hydroxypropylcellulose) (HPC)): 10 of 10 | survivor count (dose: 0.25 mg/kg/injection, schedule: Q01DX009 (ip), vehicle: other): 6 of 10 | T/C (dose: 0.4 mg/kg/injection, schedule: Q01DX005 (ip), vehicle: DMSO): 135 % of control | T/C (dose: 0.5 mg/kg/injection, schedule: Q01DX005 (ip), vehicle: Klucel (hydroxypropylcellulose) (HPC), evaluated on day 30): 145 % of control | T/C (dose: 0.5 mg/kg/injection, schedule: Q01DX005 (ip), vehicle: Klucel (hydroxypropylcellulose) (HPC), evaluated on day 60): 138 % of control | survivor count (dose: 0.5 mg/kg/injection, schedule: Q01DX009 (ip), vehicle: other): 2 of 10 | survivor count (dose: 0.8 mg/kg/injection, schedule: Q01DX005 (ip), vehicle: DMSO): 0 of 5 | survivor count (dose: 0.8 mg/kg/injection, schedule: Q01DX005 (ip), vehicle: other): 3 of 5 | T/C (dose: 0.94 mg/kg/injection, schedule: Q01DX009 (ip), vehicle: Klucel (hydroxypropylcellulose) (HPC)): 149 % of control | T/C (dose: 1.0 mg/kg/injection, schedule: Q01DX005 (ip), vehicle: Klucel (hydroxypropylcellulose) (HPC)): 138 % of control | T/C (dose: 1.0 mg/kg/injection, schedule: Q01DX009 (ip), vehicle: Klucel (hydroxypropylcellulose) (HPC)): 130 % of control | survivor count (dose: 1.0 mg/kg/injection, schedule: Q01DX009 (ip), vehicle: other): 0 of 10 | survivor count (dose: 1.25 mg/kg/injection, schedule: Q01DX009 (ip), vehicle: saline): 6 of 6 | survivor count (dose: 1.6 mg/kg/injection, schedule: Q01DX005 (ip), vehicle: DMSO): 0 of 5 | survivor count (dose: 1.6 mg/kg/injection, schedule: Q01DX005 (ip), vehicle: other): 0 of 5 | survivor count (dose: 1.88 mg/kg/injection, schedule: Q01DX009 (oral), vehicle: other): 2 of 10 | T/C (dose: 2.0 mg/kg/injection, schedule: Q01DX005 (ip), vehicle: Klucel (hydroxypropylcellulose) (HPC)): 138 % of control | survivor count (dose: 2.0 mg/kg/injection, schedule: Q01DX009 (ip), vehicle: other): 0 of 10 | T/C (dose: 2.5 mg/kg/injection, schedule: Q01DX009 (ip), vehicle: Klucel (hydroxypropylcellulose) (HPC)): 145 % of control | survivor count (dose: 2.5 mg/kg/injection, schedule: Q01DX009 (ip), vehicle: other): 0 of 10 | T/C (dose: 2.5 mg/kg/injection, schedule: Q01DX009 (ip), vehicle: saline with Tween-80): 135 % of control | survivor count (dose: 3.2 mg/kg/injection, schedule: Q01DX005 (ip), vehicle: other): 0 of 5 | T/C (dose: 3.75 mg/kg/injection, schedule: Q01DX009 (ip), vehicle: Klucel (hydroxypropylcellulose) (HPC)): 142 % of control | survivor count (dose: 3.75 mg/kg/injection, schedule: Q01DX009 (oral), vehicle: other): 0 of 10 | survivor count (dose: 5.0 mg/kg/injection, schedule: Q01DX009 (ip), vehicle: other): 0 of 10 | T/C (dose: 5.0 mg/kg/injection, schedule: Q04DX003 (ip), vehicle: saline with Tween-80): 144 and 149 % of control | survivor count (dose: 7.5 mg/kg/injection, schedule: Q01DX009 (oral), vehicle: other): 0 of 10 | survivor count (dose: 10.0 mg/kg/injection, schedule: Q01DX009 (ip), vehicle: other): 0 of 10 | survivor count (dose: 10.0 mg/kg/injection, schedule: Q01DX009 (ip), vehicle: saline with Tween-80): 6 of 6 | survivor count (dose: 15.0 mg/kg/injection, schedule: Q01DX009 (ip), vehicle: Klucel (hydroxypropylcellulose) (HPC)): 3 of 10 | survivor count (dose: 15.0 mg/kg/injection, schedule: Q01DX009 (oral), vehicle: Klucel (hydroxypropylcellulose) (HPC)): 10 of 10 | survivor count (dose: 15.0 mg/kg/injection, schedule: Q01DX009 (oral), vehicle: other): 0 of 10 | survivor count (dose: 16.0 mg/kg/injection, schedule: Q01DX005 (ip), vehicle: Klucel (hydroxypropylcellulose) (HPC)): 9 of 10 | survivor count (dose: 20.0 mg/kg/injection, schedule: Q01DX009 (ip), vehicle: Klucel (hydroxypropylcellulose) (HPC)): 10 of 10 | survivor count (dose: 20.0 mg/kg/injection, schedule: Q01DX009 (ip), vehicle: other): 0 of 10 | survivor count (dose: 20.0 mg/kg/injection, schedule: Q01DX009 (ip), vehicle: saline with Tween-80): 6 of 6 | survivor count (dose: 20.0 mg/kg/injection, schedule: Q04DX003 (ip), vehicle: saline with Tween-80): 4 of 6 | survivor count (dose: 30.0 mg/kg/injection, schedule: Q01DX009 (ip), vehicle: Klucel (hydroxypropylcellulose) (HPC)): 0 of 10 and 9 of 10 | survivor count (dose: 30.0 mg/kg/injection, schedule: Q01DX009 (ip), vehicle: other): 0 of 10 | survivor count (dose: 30.0 mg/kg/injection, schedule: Q01DX009 (oral), vehicle: Klucel (hydroxypropylcellulose) (HPC)): 7 of 10 | survivor count (dose: 30.0 mg/kg/injection, schedule: Q01DX009 (oral), vehicle: other): 0 of 10 | survivor count (dose: 40.0 mg/kg/injection, schedule: Q01DX009 (ip), vehicle: saline with Tween-80): 1 of 6 | survivor count (dose: 40.0 mg/kg/injection, schedule: Q04DX003 (ip), vehicle: saline with Tween-80): 0 of 6 | survivor count (dose: 60.0 mg/kg/injection, schedule: Q01DX009 (oral), vehicle: Klucel (hydroxypropylcellulose) (HPC)): 5 of 10 | survivor count (dose: 60.0 mg/kg/injection, schedule: Q01DX009 (oral), vehicle: other): 0 of 10 | T/C (dose: 50.0 micrograms/kg/injection, schedule: Q03HX008 (ip), vehicle: other): 130 % of control | T/C (dose: 50.0 micrograms/kg/injection, schedule: Q03HX020 (ip), vehicle: other): 143 % of control | T/C (dose: 50.0 micrograms/kg/injection, schedule: Q12HX010 (ip), vehicle: other): 131 % of control | T/C (dose: 100.0 micrograms/kg/injection, schedule: Q01DX005 (ip), vehicle: other, evaluated on day 30): 129 % of control | T/C (dose: 100.0 micrograms/kg/injection, schedule: Q01DX005 (ip), vehicle: other, evaluated on day 60): 128 % of control [9 of 10 alive] | survivor count (dose: 100.0 micrograms/kg/injection, schedule: Q01DX005 (iv), vehicle: other): 2 of 10 | T/C (dose: 100.0 micrograms/kg/injection, schedule: Q03HX008 (ip), vehicle: other): 138 % of control | survivor count (dose: 100.0 micrograms/kg/injection, schedule: Q12HX004 (iv), vehicle: other): 6 of 10 | T/C (dose: 100.0 micrograms/kg/injection, schedule: Q12HX010 (ip), vehicle: other): 137 % of control | survivor count (dose: 200.0 micrograms/kg/injection, schedule: Q01DX001 (iv), vehicle: other): 0 of 10 | T/C [1]: 143 % of control [9 of 10 alive] | survivor count [1]: 0 of 10 | survivor count (dose: 200.0 micrograms/kg/injection, schedule: Q01DX005 (iv), vehicle: other): 0 of 10 (2×) | survivor count (dose: 200.0 micrograms/kg/injection, schedule: Q03HX020 (ip), vehicle: other): 5 of 10 | T/C (dose: 200.0 micrograms/kg/injection, schedule: Q04DX002 (ip), vehicle: other): 144 % of control | survivor count (dose: 200.0 micrograms/kg/injection, schedule: Q04DX002 (iv), vehicle: other): 0 of 10 | T/C (dose: 200.0 micrograms/kg/injection, schedule: Q12HX004 (ip), vehicle: other): 131 % of control | survivor count (dose: 400.0 micrograms/kg/injection, schedule: Q01DX005 (ip), vehicle: other): 0 of 10 and 9 of 10 | survivor count (dose: 400.0 micrograms/kg/injection, schedule: Q01DX005 (iv), vehicle: other): 0 of 10 | survivor count (dose: 400.0 micrograms/kg/injection, schedule: Q03HX008 (ip), vehicle: other): 4 of 10 | survivor count (dose: 400.0 micrograms/kg/injection, schedule: Q03HX020 (ip), vehicle: other): 0 of 10 | survivor count (dose: 400.0 micrograms/kg/injection, schedule: Q04DX002 (ip), vehicle: other): 6 of 10 | T/C (dose: 400.0 micrograms/kg/injection, schedule: Q12HX004 (ip), vehicle: other): 144 % of control | survivor count (dose: 400.0 micrograms/kg/injection, schedule: Q12HX010 (ip), vehicle: other): 6 of 10 | survivor count (dose: 800.0 micrograms/kg/injection, schedule: Q01DX005 (ip), vehicle: other): 0 of 10 (2×) | survivor count (dose: 800.0 micrograms/kg/injection, schedule: Q01DX005 (iv), vehicle: other): 0 of 10 | survivor count (dose: 800.0 micrograms/kg/injection, schedule: Q04DX002 (ip), vehicle: other): 1 of 10 | survivor count (dose: 800.0 micrograms/kg/injection, schedule: Q12HX004 (ip), vehicle: other): 3 of 10 | survivor count (dose: 1600.0 micrograms/kg/injection, schedule: Q01DX001 (ip), vehicle: other): 0 of 10 | survivor count (dose: 1600.0 micrograms/kg/injection, schedule: Q01DX005 (ip), vehicle: other): 0 of 10 | survivor count (dose: 1600.0 micrograms/kg/injection, schedule: Q01DX005 (iv), vehicle: other): 0 of 10 | survivor count (dose: 1600.0 micrograms/kg/injection, schedule: Q04DX002 (ip), vehicle: other): 0 of 10
